The whole screen tested about 410,000 compounds, of which about 18,000 (4.4%) were called active. Inconclusive means that the source gave no clear call. Such entries were picked first, then a sample of the others. No stated cut-off is given here; in the data, active means activity change below about -60%; inconclusive means no clear call, values can overlap the other calls; inactive means above about -39%.
Experiment: qHTS Assay for inhibitors of the human cytomegalovirus (HCMV)
Settings: HFF cells, HCMV-luciferase reporter, 72 h; at 57.5 µM; stronger effect = lower value
Method in brief: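 Screen run at 2 compound doses on HFFs infected with reporter HCMV, MOI 1 PFU/cell. Luciferase activity from cell lysates at 72 h post infection gave inhibition relative to buffer-only and Salinomycin wells.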
For `Cc1cccc(CCNC(=O)Cn2ncc3c([nH]c4ccc(C)cc43)c2=O)c1`, the activity change, negative = inhibition was inconclusive: -50.2%.
With `COc1ccccc1N1CCN(CCCNC(=O)c2cnn(-c3ccccc3)c2C2CCN(C(=O)OC(C)(C)C)CC2)CC1` the activity change, negative = inhibition was inconclusive: 0%.
With `CCCc1cc(C(=O)Nc2cc(Cl)ccc2O)no1` the activity change, negative = inhibition was inactive: 89.4%.
For `COc1ccc(CN2CCN(c3ncnc4sc5c(c34)CC(C)CC5)CC2)cc1F` (stereo not drawn), the activity change, negative = inhibition was inactive: 14%.
With `Cc1cc(NC(=O)CSCC(=O)Nc2nc3ccccc3s2)no1` the activity change, negative = inhibition was inactive: 23.4%.
With `Cc1cc(NC(=O)CCC(=O)N(Cc2ccco2)C2(C(=O)NC3CCCC3)CCCCC2)no1` the activity change, negative = inhibition was inactive: -10.9%.
For `Cn1c(-c2cccc(F)c2)cc2c(Nc3cccc(NS(C)(=O)=O)c3)nccc21`, the activity change, negative = inhibition was inconclusive: -54.7%.
For `CSc1ncnc2c1ncn2CCCNCCc1ccccn1`, the activity change, negative = inhibition was inactive: 3.35%.
In the case of `CC(=O)N1CCOc2ccc(S(=O)(=O)NCC3CCC(C(=O)NCCC(C)C)CC3)cc21` (stereo not drawn), the activity change, negative = inhibition is reported as inconclusive: -40.7%.
In the case of `COc1ccc(CNC(=O)CSc2nnc(-c3cccnc3)n2N)cc1`, the activity change, negative = inhibition is reported as inconclusive: -43.2%.
In the case of `COCCNc1nc(NCc2ccc(NC(C)=O)cc2)c2sc(-c3ccccc3)cc2n1`, the activity change, negative = inhibition is reported as active: -97.8%.
For `COC(=O)c1ccccc1NC(=O)Cn1c(-c2nonc2N)nc2ccccc21`, the activity change, negative = inhibition was inconclusive: -59%.
With `O=C1/C(=C/c2ccccc2[N+](=O)[O-])COc2ccccc21` the activity change, negative = inhibition was active: -100%.
With `C=C1CCC[C@]2(C)C[C@H]3OC(=O)C(CNCCN(C)C)[C@H]3CC12` (stereo partly drawn) the activity change, negative = inhibition was inactive: -37.7%.
With `CC#Cc1cc2c(cc1O)CCC1C2CCC2(C)C(O)CCC12` (stereo not drawn) the activity change, negative = inhibition was inconclusive: -55.6%.
In the case of `CC1CC(C)CN(C(=O)/C=C/c2ccc([N+](=O)[O-])s2)C1` (stereo not drawn), the activity change, negative = inhibition is reported as active: -86.6%.
For `COc1cccc(-n2cc3c(=O)n(C)c(=O)n(C)c3c2)c1`, the activity change, negative = inhibition was inactive: 28%.
With `COc1ccc(/C(N)=N/OC(=O)c2ccc([N+](=O)[O-])c(C)c2)cc1OC` the activity change, negative = inhibition was inactive: -38.4%.
With `COc1ccc(-c2nc3c(C#N)c[nH]n3c2NC2CCCC2)c(OC)c1` the activity change, negative = inhibition was inactive: -5.67%.
With `O=C(NC1CCCC1)C(c1ccc(F)cc1)N(Cc1ccccc1Cl)C(=O)CCl` (stereo not drawn) the activity change, negative = inhibition was inactive: -21.1%.
For `CCCNC(=O)c1nc(C)n(-c2cc(Cl)ccc2Cl)n1`, the activity change, negative = inhibition was inconclusive: -41.7%.
In the case of `C#CCNC(=O)C[C@@H]1C[C@@]2(C(=O)OC)CC(C)(C)CC=C2N(CCc2ccc(OC)c(OC)c2)C1=O`, the activity change, negative = inhibition is reported as inconclusive: -52.4%.
For `CC(O)C(NS(=O)(=O)c1ccc(Cl)cc1)C(=O)OCc1cc([N+](=O)[O-])cc2c1OCOC2` (stereo not drawn), the activity change, negative = inhibition was inconclusive: -49.9%.

Source: PubChem BioAssay AID1259415 (National Center for Advancing Translational Sciences (NCATS), 2018)
On the % scale 0 is the no-effect control and ±100 the full control effect.
